Source: article PMC9761386
These are yes or no findings as the source states them, for the method shown. In cells and extracts the contact can be indirect. A yes stands for co-enrichment or nearness to the bait. Other partners may have been found. For some of these results: A no says only that the protein was not detected with the bait.

Sequences of proteins named here, by UniProt entry; tags and fusion partners are left off. A change or cut given only in a name is not applied to a line headed by its entry. A line that says so, or that is headed by a name, gives the form on record, which may keep a tag or linker. Residues count along the entry.
WT PD-L1 (programmed death ligand 1) tagged with GFP (Q9EP73, residues 19-290): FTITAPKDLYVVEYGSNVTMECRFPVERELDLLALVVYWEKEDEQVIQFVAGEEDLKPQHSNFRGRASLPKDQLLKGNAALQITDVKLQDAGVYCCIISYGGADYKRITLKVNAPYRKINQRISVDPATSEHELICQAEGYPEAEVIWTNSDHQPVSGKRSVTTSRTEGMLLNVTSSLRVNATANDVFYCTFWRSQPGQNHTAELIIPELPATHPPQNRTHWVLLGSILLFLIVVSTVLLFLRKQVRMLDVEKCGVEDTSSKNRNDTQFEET
PD-L1 with the TSS-AAA mutation in the cytoplasmic domain, tagged with GFP (Q9EP73, form named): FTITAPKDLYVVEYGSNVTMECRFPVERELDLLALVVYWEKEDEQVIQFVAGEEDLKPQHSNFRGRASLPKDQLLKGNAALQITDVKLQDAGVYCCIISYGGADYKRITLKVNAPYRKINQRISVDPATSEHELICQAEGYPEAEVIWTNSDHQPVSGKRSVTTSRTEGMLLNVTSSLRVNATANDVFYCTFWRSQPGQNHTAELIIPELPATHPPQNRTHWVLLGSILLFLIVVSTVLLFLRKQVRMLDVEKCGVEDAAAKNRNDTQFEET
UniProt Q8C547: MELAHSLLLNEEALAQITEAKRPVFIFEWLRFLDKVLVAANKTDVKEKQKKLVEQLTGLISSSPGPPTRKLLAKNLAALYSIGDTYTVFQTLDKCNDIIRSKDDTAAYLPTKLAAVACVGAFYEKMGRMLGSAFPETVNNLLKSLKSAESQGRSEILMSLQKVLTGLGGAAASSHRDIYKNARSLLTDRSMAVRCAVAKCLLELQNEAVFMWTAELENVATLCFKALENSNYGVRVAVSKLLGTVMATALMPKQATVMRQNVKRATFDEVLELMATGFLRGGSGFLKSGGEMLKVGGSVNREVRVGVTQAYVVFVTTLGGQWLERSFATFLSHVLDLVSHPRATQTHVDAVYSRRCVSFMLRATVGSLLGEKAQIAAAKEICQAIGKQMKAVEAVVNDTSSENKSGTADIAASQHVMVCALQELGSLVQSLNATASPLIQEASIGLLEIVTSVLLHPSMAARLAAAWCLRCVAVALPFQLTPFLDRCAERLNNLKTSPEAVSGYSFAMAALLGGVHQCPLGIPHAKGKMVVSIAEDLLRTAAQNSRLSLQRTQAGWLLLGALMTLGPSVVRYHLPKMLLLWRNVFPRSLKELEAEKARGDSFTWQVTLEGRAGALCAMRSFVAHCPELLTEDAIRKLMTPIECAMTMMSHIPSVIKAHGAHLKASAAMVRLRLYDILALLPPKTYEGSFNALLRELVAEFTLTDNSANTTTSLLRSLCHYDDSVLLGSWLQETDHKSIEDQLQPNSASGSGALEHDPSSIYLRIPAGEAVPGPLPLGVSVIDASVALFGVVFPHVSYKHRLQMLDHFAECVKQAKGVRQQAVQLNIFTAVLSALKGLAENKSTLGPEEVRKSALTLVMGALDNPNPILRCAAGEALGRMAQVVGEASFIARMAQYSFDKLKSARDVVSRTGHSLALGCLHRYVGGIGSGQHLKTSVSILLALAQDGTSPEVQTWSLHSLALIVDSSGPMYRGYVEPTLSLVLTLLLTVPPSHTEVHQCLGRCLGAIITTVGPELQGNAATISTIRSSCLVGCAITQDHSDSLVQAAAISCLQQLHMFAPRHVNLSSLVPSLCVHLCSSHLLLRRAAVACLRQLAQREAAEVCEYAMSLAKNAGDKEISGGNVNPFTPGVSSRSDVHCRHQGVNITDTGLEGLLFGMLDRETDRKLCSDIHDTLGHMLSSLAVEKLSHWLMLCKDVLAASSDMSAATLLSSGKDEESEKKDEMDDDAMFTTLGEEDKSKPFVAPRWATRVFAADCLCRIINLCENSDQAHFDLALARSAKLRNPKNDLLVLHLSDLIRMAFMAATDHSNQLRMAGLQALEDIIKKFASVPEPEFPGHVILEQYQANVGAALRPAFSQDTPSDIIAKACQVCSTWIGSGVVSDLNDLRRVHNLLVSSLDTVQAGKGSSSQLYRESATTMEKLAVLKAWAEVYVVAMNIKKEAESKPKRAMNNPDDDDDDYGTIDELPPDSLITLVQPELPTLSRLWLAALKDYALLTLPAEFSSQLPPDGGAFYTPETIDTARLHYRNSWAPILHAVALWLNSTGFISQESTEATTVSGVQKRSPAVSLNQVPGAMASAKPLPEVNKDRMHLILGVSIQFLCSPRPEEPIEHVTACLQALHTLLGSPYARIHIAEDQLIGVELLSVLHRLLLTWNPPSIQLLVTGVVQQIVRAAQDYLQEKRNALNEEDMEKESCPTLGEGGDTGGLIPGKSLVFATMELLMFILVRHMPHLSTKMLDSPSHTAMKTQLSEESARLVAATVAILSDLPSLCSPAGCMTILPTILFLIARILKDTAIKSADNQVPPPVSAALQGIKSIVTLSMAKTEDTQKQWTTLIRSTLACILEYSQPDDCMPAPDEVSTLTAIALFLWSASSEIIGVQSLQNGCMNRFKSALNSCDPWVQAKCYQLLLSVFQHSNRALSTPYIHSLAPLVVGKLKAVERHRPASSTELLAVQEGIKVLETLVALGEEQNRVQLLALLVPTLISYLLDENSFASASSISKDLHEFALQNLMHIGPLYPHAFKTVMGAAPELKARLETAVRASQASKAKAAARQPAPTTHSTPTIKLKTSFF
UniProt Q922U2: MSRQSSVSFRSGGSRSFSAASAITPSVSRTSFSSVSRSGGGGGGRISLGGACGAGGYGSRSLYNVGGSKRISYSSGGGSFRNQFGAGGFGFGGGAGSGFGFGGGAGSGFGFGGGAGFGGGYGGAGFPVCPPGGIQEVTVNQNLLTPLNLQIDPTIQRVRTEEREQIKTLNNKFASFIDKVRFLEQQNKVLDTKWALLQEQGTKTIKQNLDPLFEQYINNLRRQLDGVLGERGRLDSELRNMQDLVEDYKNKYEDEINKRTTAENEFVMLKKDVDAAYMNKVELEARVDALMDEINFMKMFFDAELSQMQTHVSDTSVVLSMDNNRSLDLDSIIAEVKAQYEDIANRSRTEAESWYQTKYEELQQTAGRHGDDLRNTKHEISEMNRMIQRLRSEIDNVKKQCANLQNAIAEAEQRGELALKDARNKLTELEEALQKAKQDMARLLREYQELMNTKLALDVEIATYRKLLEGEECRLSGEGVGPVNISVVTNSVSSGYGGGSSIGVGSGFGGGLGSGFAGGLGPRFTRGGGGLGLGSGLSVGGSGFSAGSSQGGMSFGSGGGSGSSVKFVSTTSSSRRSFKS
UniProt P42227: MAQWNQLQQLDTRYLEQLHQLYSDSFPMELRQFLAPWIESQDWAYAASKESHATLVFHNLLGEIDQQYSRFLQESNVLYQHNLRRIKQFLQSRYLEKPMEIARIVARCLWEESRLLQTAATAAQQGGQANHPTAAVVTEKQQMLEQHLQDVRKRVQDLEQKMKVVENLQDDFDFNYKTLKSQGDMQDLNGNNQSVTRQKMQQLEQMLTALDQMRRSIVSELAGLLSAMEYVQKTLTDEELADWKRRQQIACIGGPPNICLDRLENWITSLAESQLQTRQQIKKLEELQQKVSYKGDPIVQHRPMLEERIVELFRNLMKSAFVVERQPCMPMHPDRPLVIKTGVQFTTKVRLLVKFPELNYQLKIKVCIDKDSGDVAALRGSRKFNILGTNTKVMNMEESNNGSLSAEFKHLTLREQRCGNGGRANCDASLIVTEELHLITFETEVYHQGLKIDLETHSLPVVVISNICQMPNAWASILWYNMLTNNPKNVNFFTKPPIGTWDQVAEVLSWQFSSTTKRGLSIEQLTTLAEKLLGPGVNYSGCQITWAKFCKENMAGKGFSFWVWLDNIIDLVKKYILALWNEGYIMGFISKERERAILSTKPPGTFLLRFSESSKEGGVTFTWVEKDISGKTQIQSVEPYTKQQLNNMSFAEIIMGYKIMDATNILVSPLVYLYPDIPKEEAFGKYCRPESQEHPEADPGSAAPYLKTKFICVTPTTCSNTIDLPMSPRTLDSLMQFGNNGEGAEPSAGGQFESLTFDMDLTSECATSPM

What was measured:
[1] = molecular target: PD-L1 with the TSS-AAA mutation in the cytoplasmic domain, tagged with GFP (mouse) (UniProt Q9EP73); assay: affinity purification with mass spectrometry; PD-L1-GFP immunoprecipitated from lysates of SVEC4-10 cells after sodium vanadate; peptides enriched for phosphopeptides (Fe-NTA) before LC-MS/MS; n = 3 samples per group
[2] = molecular target: WT PD-L1 (programmed death ligand 1) tagged with GFP (mouse) (UniProt Q9EP73); assay: as above

Row | Molecule | binding [1] | binding [2]
1 | Heat repeat containing 5b, phosphorylated (from UniProt Q8C547 1-2070) | no binding | binds
2 | Keratin 5, phosphorylated (from UniProt Q922U2 1-580) | no binding | binds
3 | STAT3 phosphorylated on Ser727 (from UniProt P42227 1-770) | – | binds
4 | MDA5, phosphorylated (protein, UniProt Q8R5F7 1-1025, phosphorylated (site not given)) MSIVCSAEDSFRNLILFFRPRLKMYIQVEPVLDHLIFLSAETKEQILKKINTCGNTSAAELLLSTLEQGQWPLGWTQMFVEALEHSGNPLAARYVKPTLTDLPSPSSETAHDECLHLLTLLQPTLVDKLLINDVLDTCFEKGLLTVEDRNRISAAGNSGNESGVRELLRRIVQKENWFSTFLDVLRQTGNDALFQELTGGGCPEDNTDLANSSHRDGPAANECLLPAVDESSLETEAWNVDDILPEASCTDSSVTTESDTSLAEGSVSCFDESLGHNSNMGRDSGTMGSDSDESVIQTKRVSPEPELQLRPYQMEVAQPALDGKNIIICLPTGSGKTRVAVYITKDHLDKKKQASESGKVIVLVNKVMLAEQLFRKEFNPYLKKWYRIIGLSGDTQLKISFPEVVKSYDVIISTAQILENSLLNLESGDDDGVQLSDFSLIIIDECHHTNKEAVYNNIMRRYLKQKLRNNDLKKQNKPAIPLPQILGLTASPGVGAAKKQSEAEKHILNICANLDAFTIKTVKENLGQLKHQIKEPCKKFVIADDTRENPFKEKLLEIMASIQTYCQKSPMSDFGTQHYEQWAIQMEKKAAKDGNRKDRVCAEHLRKYNEALQINDTIRMIDAYSHLETFYTDEKEKKFAVLNDSDKSDDEASSCNDQLKGDVKKSLKLDETDEFLMNLFFDNKKMLKKLAENPKYENEKLIKLRNTILEQFTRSEESSRGIIFTKTRQSTYALSQWIMENAKFAEVGVKAHHLIGAGHSSEVKPMTQTEQKEVISKFRTGEINLLIATTVAEEGLDIKECNIVIRYGLVTNEIAMVQARGRARADESTYVLVTSSGSGVTEREIVNDFREKMMYKAINRVQNMKPEEYAHKILELQVQSILEKKMKVKRSIAKQYNDNPSLITLLCKNCSMLVCSGENIHVIEKMHHVNMTPEFKGLYIVRENKALQKKFADYQTNGEIICKCGQAWGTMMVHKGLDLPCLKIRNFVVNFKNNSPKKQYKKWVELPIRFPDLDYSEYCLYSDED | no binding | binds
5 | Rho GTPase Activating Protein 35, phosphorylated (protein, UniProt Q91YM2 1-1499, phosphorylated (site not given)) MMMARKQDVRIPTYNISVVGLSGTEKEKGQCGIGKSCLCNRFVRPSADEFHLDHTSVLSTSDFGGRVVNNDHFLYWGEVSRSLEDCVECKMHIVEQTEFIDDQTFQPHRSTALQPYIKRAAATKLASAEKLMYFCTDQLGLEQDFEQKQMPDGKLLVDGFLLGIDVSRGMNRNFDDQLKFVSNLYNQLAKTKKPIVVVLTKCDEGVERYIRDAHTFALSKKNLQVVETSARSNVNVDLAFSTLVQLIDKSRGKTKIIPYFEALKQQSQQIATAKDKYEWLVSRIVKNHNENWPSVSRKMQASPEYQDYVYLEGTQKAKKLFLQHIHRLKHEHIERRRKLYLAALPLAFEALIPNLDEVDHLSCIKAKKLLETKPEFLKWFVVLEETPWDATSHIDNMENERIPFDLMDTVPAEQLYETHLEKLRNERKRAEMRRAFKENLETSPFITPGKPWEEARSFIMNEDFYQWLEESVYMDIYGKHQKQIIDRAKEEFQELLLEYSELFYELELDAKPSKEKMGVIQDVLGEEQRFKALQKLQAERDALILKHIHFVYHPTKETCPSCPACVDAKIEHLISSRFIRPSDRNQKNSLSDLNIDRINLVILGKDGLARELANEIRALCTNDDKYVIDGKMYELSLRPIEGNVRLPVNSFQTPTFQPHGCLCLYNSKESLSYVVESIEKSRESTLGRRDNHLVHLPLTLILVNKRGDTSGETLHSLIQQGQQIASKLQCVFLDPASAGIGYGRNINEKQISQVLKGLLDSKRNLNLVSSTASIKDLADVDLRIVMCLMCGDPFSADDVLSPVLQSQTCKSSHCGSSNSVLLELPIGLHKKRIELSVLSYHSSFSIRKSRLVHGYIVFYSAKRKASLAMLRAFLCEVQDIIPIQLVALTDGAIDVLDNDLSREQLTEGEEIAQEIDGRFTSIPCSQPQHKLELFHPFFKDVVEKKNIIEATHMYDNVAEACSTTEEVFNSPRAGSPLCNSNLQDSEEDVEPPSYHLFREDATLPSLSKDHSKFSMELEGNDGLSFIMSNFESKLNNKVPPPVKPKPPVHFDITKDLSYLDQGHREGQRKSMSSSPWMPQDGFDPSDYAEPMDAVVKPRNEEENIYSVPHDSTQGKIITIRNINKAQSNGSGNGSDSEMDTSSLERGRKVSAVSKPVLYRTRCTRLGRFASYRTSFSVGSDDELGPIRKKEEDQASQGYKGDNAVIPYETDEDPRRRNILRSLRRNTKKPKPKPRPSITKATWESNYFGVPLTTVVTPEKPIPIFIERCIEYIEATGLSTEGIYRVSGNKSEMESLQRQFDQDHNLDLAEKDFTVNTVAGAMKSFFSELPDPLVPYSMQIDLVEAHKINDREQKLHALKEVLKKFPKENHEVFKYVISHLNKVSHNNKVNLMTSENLSICFWPTLMRPDFSSMDALTATRSYQTIIELFIQQCPFFFYNRPISEPPGAAPGSPSAMAPTVPFLTSTPATSQPSPPQSPPPTPQSPMQPLLSSQLQAEHTL | – | binds
6 | Drebin 1, phosphorylated (protein, UniProt Q9QXS6 1-706, phosphorylated (site not given)) MAGVSFSGHRLELLAAYEEVIREESAADWALYTYEDGSDDLKLAASGEGGLQELSGHFENQKVMYGFCSVKDSQAALPKYVLINWVGEDVPDARKCACASHVAKVAEFFQGVDVIVNASSVEDIDAGAIGQRLSNGLARLSSPVLHRLRLREDENAEPVGTTYQKTDAAVEMKRINREQFWEQAKKEEELRKEEERKKALDARLRFEQERMEQERQEQEERERRYREREQQIEEHRRKQQSLEAEEAKRRLKEQSIFGDQRDEEEESQMKKSESEVEEAAAIIAQRPDNPREFFRQQERVASASGGSCDAPAPAPFNHRPGRPYCPFIKASDSGPSSSSSSSSSPPRTPFPYITCHRTPNLSSSLPCSHLDSHRRMAPTPIPTRSPSDSSTASTPIAEQIERALDEVTSSQPPPPPPPPPPTQEAQETTPSLDEELSKEAKVTAAPEVWAGCAAEPPQAQEPPLLQSSPLEDSMCTESPEQAALAAPAEPAASVTSVADVHAADTIETTTATTDTTIANNVTPAAASLIDLWPGNGEEASTLQAEPRVPTPPSGAEASLAEVPLLNEAAQEPLPPVGEGCANLLNFDELPEPPATFCDPEEEVGETLAASQVLTMPSALEEVDQVLEQELEPEPHLLTNGETTQKEGTQASEGYFSQSQEEEFAQSEEPCAKVPPPVFYNKPPEIDITCWDADPVPEEEEGFEGGD | binds | –
7 | Pleckstrin Homology Like Domain Family B Member 2, phosphorylated (protein, UniProt Q8K1N2 1-1249, phosphorylated (site not given)) MAEDSHMQKQLEFQNGSLEEGFVVRSLENEPQNMMESLSPRKYSSSLKFKANGDYSGSYLTLSQPVSAKRSPSPMGTSVRSSPSLAKIQGSKQFCDGIDKNISMKPPISFLSSAASLGGYPLGKADLDHYTGRDSERSTRLSEKPPYSRYSSRNKSHDSVYFLGGLEGRKTSGSLLTMWNGNSLSCTGSSPISRSGAASMPSSPKQVRKMNLQDHSTLQPRLSRHKEPASENVSVRTRKYSGSSLSNMGAYSRSLPRLYKATDNQMSPLSLPPRSSLGNSRRGQLGEKDLPHSLVDSDNYLNFSSLSSGASPYKTCLSEGNPYVSSALSVPASPRVARKMLLASTSSDDFDRASYSGTSPSHSFISGEPDRVLVARRNFSCGSMELDDSDLESLRQSSETPQPVLRERKSSISSISGRDDLMDYHRRQREERLREQEMERLERQRLETILSLCAEYTKPEGRRLSAGTTVADVQKINKELEKLQLSDEESVFEDALVCPDARYRCHRKGSLQDVDVAGFGNLGHSASFLAPRGSRSDELLGDLTRTPPSSSAAFLKATNESSYLSILPKTPEDIGEEQRTQELAAMEDARMVILNNLEELEQKIKDINDQMDESSRELDMECALLDGEQKSETAELMKEKEILDHLNRKITELEKNIVGEKTKEKVKLDAEREKLERLQELYSEQKTQLDNCPESMREQLQQQLKRDADLLDVESKHFEDLEFQQLEHESRLDEEKENLTQQLLREVAEYQRNIVARKEKISALKKQASHIVQQAQREQDHFVKEKNNLIMMLQREKENLCNLEKKYSSLTGGKGFPINPNTLKEGYISVNEINESCGNSTNLSPSTQFPADADAAVTEPALAVPVSQPQSSEHFRSLEERKKQHKEGLYLSDTLPRKKTTPSLSPHFSSATMGRSTTPKAHLPLGQSNSCGSVLPHSLATMTKDSESRRMLRGYNHQQMSEGQRQKPEFYSRTASESNVYLNSFHYPDRSYKDQAYDTLSLDSSDSMETSISACSPDNISSASTSNIARIEEMERLLKQAHAEKTRLLESREREMEAKKRALEEEKRRREILEKRLQEETSQRQKLIEKEVKIREKQRAQARPLTRYLPVRKEDFDLRSHVETAGHNIDTCFHVSITEKTCRGYLIKMGGKIKTWKKRWFVFDRNKRTFSYYADKHEAKLKGVIYFQAIEEVYYDHLKNANKSPNPLLTFSVKTHDRIYYMVAPSPEAMRIWMDVIVTGAEGYTHFLL | binds | –
